These are yes or no findings as the source states them, for the method shown. In cells and extracts the contact can be indirect. A yes stands for co-enrichment or nearness to the bait. Other partners may have been found. A no says only that the protein was not detected with the bait. Sequences can lack the tags named with a protein.

The test addresses YhcB fused to sequential peptide affinity tag (E. coli) (UniProt P0ADW3). In words: affinity purification with mass spectrom.

B1: YhcB fused to sequential peptide affinity tag (protein, UniProt P0ADW3 1-132)
chain: MTWEYALIGLVVGIIIGAVAMRFGNRKLRQQQALQYELEKNKAELDEYREELVSHFARSAELLDTMAHDYRQLYQHMAKSSSSLLPELSAEANPFRNRLAESEASNDQAPVQMPRDYSEGASGLLRTGAKRD
B1: the binding entry is reported as “no binding”.

The values above are taken from PMC8163987.
